Measured values from publication doi:10.1101/2021.12.19.473358.
These are yes or no findings as the source states them, for the method shown. A result given as binding can be weak or reduced; the word gives no strength.

Experiments:
Experiment in all cases: two-hybrid
[1] = biological target: T1, Drosophila 4E-BP (Drosophila melanogaster) (UniProt Q9XZ56)
T1 sequence: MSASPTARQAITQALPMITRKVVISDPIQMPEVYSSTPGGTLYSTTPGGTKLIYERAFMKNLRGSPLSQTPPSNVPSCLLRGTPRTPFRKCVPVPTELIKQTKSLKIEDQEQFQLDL

[2] = biological target: T2, Drosophila Cup (Drosophila melanogaster) (UniProt Q9VMA3)
T2 sequence: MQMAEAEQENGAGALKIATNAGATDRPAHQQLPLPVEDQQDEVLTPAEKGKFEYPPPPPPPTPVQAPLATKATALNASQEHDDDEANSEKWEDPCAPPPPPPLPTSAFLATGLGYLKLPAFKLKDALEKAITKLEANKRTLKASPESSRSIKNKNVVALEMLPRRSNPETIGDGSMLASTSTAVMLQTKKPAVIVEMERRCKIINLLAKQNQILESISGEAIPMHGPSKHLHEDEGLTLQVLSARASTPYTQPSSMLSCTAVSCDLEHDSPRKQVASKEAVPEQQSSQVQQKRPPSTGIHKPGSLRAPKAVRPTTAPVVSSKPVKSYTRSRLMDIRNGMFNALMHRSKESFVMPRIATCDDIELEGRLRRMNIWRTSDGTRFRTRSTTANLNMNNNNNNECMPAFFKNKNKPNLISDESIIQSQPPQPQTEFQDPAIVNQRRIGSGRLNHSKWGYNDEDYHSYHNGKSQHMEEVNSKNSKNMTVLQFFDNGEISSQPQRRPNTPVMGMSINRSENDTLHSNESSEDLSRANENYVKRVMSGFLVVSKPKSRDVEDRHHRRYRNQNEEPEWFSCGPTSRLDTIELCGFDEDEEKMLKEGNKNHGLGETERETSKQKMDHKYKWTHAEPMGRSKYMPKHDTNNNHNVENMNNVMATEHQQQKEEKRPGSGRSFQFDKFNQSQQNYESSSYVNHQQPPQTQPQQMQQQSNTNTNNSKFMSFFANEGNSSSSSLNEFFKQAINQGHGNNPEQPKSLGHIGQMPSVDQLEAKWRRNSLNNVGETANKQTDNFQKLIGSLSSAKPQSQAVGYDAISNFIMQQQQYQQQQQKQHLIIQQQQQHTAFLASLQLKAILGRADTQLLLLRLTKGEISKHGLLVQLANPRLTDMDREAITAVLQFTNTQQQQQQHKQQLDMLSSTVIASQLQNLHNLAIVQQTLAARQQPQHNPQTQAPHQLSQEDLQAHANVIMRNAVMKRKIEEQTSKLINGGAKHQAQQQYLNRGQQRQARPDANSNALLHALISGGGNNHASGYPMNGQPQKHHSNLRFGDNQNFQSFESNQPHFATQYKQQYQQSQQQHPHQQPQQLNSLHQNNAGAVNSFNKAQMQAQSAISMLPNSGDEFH

[3] = biological target: T3, Drosophila eIF4E transporter (4E-T) (Drosophila melanogaster) (UniProt Q8IH18)
T3 sequence: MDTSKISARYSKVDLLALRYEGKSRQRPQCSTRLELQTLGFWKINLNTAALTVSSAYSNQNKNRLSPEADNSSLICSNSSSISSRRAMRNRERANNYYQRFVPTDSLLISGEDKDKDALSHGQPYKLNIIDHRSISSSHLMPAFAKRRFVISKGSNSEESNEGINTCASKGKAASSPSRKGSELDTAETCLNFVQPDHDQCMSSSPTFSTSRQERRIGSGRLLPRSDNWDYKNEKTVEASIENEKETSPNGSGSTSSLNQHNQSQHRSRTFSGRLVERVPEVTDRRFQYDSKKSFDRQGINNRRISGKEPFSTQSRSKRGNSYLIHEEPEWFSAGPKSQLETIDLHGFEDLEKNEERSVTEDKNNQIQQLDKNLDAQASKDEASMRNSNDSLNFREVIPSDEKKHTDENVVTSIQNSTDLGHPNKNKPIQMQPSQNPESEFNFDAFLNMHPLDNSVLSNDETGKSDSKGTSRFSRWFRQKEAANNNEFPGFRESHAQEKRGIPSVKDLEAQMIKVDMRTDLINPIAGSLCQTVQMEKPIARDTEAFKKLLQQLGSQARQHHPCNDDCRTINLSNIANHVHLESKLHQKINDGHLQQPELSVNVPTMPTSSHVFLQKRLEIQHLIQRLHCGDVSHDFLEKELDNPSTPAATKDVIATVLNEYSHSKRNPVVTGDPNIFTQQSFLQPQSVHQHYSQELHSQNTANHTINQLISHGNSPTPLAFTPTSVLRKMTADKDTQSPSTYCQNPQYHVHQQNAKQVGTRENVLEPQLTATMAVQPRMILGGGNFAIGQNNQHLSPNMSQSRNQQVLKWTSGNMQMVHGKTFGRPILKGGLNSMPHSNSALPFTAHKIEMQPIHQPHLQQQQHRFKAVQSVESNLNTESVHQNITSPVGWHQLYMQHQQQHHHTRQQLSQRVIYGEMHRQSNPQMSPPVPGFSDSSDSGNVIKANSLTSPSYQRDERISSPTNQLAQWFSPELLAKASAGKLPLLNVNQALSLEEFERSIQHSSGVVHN

[4] = biological target: Drosophila eIF4G-2 (313-1164) (Drosophila melanogaster) (UniProt Q9VCH1)

- binding [1]: binds
- binding [2]: binds
- binding [3]: binds
- binding [4]: binds
Substance: Drosophila eIF4E-5 (from UniProt Q9VSB6)
